Assay results: paper doi:10.1101/750596
These are yes or no findings as the source states them, for the method shown. Some entries that bind do so weakly or less than the wild type.

Molecular target: T1, annotated full-length CNTD1 (Cyclin N-terminal domain-containing 1), yeast two-hybrid bait (mouse) (UniProt Q9D995)
T1 sequence: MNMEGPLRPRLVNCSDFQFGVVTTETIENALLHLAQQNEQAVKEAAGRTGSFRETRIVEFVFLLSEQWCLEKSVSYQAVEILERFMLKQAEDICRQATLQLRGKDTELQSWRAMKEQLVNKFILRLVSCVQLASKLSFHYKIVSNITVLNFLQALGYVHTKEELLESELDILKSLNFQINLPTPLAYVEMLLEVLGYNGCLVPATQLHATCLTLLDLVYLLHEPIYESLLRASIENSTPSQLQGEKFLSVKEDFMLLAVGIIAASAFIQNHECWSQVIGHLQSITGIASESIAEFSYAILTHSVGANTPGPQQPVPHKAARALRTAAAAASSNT
Test: two-hybrid

B1: CDK4, yeast two-hybrid prey (enzyme, UniProt P30285 1-303)
chain: MAATRYEPVAEIGVGAYGTVYKARDPHSGHFVALKSVRVPNGGAAGGGLPVSTVREVALLRRLEAFEHPNVVRLMDVCATSRTDRDIKVTLVFEHIDQDLRTYLDKAPPPGLPVETIKDLMRQFLSGLDFLHANCIVHRDLKPENILVTSNGTVKLADFGLARIYSYQMALTPVVVTLWYRAPEVLLQSTYATPVDMWSVGCIFAEMFRRKPLFCGNSEADQLGKIFDLIGLPPEDDWPREVSLPRGAFAPRGPRPVQSVVPEMEESGAQLLLEMLTFNPHKRISAFRALQHSYLHKEESDAE
B1 was tested, and the binding was “binds”.
